# This is one part of the list. Residues, ends and D or L forms follow the SMILES beside them. *: point of attachment. Cbz = O=C(OCc1ccccc1)*
# Chains of the proteins cited; added tags and fusions are not shown. Lines headed by an entry give the natural chain unless they say otherwise; changes in a name come on top.
# UniProt Q9C010: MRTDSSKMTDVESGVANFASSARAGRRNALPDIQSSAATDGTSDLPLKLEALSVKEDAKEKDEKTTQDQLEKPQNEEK
# UniProt O60346: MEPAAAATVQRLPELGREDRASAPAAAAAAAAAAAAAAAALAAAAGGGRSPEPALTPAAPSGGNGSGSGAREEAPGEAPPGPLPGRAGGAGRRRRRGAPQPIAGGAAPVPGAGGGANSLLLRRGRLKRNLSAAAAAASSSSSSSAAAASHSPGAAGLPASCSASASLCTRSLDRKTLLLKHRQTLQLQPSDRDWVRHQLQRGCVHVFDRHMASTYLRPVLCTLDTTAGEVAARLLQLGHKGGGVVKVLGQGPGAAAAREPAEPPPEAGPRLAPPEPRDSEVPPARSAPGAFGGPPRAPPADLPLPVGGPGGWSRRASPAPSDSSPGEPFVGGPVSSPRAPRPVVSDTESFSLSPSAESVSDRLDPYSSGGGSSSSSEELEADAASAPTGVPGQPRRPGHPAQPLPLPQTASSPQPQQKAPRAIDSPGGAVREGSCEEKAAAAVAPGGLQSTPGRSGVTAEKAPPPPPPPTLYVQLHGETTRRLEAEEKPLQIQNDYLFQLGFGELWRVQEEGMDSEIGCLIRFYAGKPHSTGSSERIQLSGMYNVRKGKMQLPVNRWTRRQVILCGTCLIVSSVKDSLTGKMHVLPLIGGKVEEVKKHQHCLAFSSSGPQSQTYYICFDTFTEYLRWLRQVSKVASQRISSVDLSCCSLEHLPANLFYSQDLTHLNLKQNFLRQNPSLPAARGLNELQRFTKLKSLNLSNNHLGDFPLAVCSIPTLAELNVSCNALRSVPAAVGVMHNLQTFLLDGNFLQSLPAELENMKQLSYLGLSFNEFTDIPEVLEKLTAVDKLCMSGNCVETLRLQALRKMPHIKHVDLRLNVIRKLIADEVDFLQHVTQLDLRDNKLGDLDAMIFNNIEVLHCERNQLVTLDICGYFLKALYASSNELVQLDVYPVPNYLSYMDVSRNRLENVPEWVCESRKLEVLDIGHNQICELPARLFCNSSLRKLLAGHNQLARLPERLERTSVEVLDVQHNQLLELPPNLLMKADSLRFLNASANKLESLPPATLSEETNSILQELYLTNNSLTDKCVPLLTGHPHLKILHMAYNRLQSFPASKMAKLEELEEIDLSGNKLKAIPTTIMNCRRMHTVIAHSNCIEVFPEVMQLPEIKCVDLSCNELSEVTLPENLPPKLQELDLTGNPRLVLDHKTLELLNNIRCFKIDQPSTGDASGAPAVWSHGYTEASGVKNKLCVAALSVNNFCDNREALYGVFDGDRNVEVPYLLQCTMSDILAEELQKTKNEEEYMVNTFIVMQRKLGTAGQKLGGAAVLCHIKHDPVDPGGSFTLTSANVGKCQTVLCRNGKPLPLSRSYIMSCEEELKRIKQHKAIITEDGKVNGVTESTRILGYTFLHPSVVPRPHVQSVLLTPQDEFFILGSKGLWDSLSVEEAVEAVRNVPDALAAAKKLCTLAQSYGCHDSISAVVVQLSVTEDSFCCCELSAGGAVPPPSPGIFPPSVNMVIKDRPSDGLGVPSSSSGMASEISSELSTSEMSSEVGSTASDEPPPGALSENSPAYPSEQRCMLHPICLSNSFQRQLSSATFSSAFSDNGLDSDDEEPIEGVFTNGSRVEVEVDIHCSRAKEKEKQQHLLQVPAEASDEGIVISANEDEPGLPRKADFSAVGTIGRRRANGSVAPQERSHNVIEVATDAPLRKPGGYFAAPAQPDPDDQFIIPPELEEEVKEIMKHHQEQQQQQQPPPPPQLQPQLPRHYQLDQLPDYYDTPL
# UniProt Q7Z7B1: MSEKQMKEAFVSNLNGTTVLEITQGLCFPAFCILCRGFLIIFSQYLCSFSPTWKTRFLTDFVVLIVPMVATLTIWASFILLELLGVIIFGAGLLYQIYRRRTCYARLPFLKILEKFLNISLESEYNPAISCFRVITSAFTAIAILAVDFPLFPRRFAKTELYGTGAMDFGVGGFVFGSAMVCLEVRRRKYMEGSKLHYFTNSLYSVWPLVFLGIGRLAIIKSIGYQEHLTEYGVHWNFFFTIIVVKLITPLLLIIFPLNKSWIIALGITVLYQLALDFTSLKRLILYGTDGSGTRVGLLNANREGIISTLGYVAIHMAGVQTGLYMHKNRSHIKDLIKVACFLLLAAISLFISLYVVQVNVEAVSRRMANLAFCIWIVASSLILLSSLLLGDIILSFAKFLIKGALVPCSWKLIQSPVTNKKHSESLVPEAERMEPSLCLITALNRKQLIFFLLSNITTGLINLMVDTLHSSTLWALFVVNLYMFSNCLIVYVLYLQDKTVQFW
# UniProt P36871: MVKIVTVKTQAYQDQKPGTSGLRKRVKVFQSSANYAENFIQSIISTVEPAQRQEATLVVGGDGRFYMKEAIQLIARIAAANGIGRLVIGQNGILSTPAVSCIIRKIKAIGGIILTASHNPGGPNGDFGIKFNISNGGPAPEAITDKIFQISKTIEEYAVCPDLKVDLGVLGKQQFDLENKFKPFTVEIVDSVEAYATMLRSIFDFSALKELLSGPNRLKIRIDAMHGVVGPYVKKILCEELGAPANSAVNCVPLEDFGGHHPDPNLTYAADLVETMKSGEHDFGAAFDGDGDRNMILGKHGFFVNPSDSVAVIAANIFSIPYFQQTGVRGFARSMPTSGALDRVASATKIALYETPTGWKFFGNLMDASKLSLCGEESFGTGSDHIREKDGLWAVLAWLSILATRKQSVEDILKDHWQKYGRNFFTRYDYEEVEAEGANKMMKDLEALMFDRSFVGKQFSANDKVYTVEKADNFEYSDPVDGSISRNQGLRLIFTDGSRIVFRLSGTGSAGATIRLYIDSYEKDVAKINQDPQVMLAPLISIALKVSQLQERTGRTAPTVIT
# UniProt Q9BZM1: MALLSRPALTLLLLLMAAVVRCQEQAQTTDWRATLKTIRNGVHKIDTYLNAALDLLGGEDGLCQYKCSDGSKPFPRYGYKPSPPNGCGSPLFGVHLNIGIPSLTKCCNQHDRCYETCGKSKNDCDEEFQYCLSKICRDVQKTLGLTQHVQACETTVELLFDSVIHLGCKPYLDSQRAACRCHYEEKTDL
# UniProt Q9P1Y6: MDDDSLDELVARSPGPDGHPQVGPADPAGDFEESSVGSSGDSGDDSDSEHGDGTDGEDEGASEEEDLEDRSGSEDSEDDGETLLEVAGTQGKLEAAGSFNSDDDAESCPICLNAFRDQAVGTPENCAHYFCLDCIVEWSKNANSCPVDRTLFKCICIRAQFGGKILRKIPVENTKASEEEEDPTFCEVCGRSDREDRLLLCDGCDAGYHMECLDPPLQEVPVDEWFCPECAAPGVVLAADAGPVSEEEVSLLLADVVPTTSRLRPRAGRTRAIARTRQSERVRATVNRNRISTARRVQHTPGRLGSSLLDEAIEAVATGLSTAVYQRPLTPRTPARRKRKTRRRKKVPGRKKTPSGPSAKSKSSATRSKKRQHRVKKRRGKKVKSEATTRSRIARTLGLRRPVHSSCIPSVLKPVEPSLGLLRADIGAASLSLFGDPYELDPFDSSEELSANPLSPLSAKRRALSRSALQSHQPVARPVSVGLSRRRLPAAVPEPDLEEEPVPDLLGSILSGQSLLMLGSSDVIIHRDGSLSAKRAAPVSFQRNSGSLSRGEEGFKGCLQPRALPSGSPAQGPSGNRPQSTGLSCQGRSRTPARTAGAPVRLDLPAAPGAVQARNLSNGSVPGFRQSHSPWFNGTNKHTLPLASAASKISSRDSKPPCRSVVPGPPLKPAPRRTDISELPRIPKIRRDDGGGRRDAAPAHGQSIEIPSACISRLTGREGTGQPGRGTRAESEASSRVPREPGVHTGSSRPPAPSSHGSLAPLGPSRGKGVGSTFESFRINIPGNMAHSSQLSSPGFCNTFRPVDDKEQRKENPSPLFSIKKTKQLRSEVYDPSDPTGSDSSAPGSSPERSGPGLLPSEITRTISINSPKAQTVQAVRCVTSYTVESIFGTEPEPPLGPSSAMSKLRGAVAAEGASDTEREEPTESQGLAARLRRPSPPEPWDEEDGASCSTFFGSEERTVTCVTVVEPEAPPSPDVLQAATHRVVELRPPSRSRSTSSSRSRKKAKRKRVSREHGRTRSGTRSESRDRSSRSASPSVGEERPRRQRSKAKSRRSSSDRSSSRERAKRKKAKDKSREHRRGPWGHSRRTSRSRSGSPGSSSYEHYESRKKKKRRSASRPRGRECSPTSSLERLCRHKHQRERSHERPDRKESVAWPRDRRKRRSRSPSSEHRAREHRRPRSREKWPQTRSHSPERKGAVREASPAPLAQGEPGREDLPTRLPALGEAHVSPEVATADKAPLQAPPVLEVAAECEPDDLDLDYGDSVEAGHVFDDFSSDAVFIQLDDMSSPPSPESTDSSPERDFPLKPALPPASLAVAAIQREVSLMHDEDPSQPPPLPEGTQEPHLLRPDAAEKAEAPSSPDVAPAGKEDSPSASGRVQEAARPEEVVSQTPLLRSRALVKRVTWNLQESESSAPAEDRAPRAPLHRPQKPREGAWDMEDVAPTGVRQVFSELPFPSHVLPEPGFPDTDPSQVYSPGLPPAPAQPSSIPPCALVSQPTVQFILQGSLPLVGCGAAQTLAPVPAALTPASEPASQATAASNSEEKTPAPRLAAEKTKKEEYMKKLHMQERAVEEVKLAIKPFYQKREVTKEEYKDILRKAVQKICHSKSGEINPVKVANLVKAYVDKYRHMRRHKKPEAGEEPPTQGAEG
# UniProt P55347: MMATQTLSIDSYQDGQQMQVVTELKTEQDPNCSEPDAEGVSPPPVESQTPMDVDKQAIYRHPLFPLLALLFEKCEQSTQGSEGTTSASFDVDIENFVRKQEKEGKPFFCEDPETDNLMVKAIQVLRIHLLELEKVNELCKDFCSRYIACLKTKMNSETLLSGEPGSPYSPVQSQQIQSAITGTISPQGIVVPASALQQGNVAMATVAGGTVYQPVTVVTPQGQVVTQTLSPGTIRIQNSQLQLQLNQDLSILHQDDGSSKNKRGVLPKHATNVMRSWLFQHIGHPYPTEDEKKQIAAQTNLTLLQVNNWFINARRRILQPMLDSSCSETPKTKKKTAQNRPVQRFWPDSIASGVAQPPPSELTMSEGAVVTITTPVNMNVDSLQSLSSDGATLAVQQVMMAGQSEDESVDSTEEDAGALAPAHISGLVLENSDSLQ
# UniProt Q03405, whole entry, looked up: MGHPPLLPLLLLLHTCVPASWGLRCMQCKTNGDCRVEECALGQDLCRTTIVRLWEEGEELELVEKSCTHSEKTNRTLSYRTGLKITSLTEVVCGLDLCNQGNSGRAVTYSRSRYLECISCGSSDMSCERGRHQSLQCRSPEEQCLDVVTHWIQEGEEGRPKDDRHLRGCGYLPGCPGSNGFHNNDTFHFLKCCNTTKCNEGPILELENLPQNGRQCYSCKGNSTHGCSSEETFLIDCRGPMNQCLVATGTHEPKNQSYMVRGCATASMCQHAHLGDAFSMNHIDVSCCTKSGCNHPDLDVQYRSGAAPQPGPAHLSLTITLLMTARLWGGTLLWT
# UniProt Q8N4B1: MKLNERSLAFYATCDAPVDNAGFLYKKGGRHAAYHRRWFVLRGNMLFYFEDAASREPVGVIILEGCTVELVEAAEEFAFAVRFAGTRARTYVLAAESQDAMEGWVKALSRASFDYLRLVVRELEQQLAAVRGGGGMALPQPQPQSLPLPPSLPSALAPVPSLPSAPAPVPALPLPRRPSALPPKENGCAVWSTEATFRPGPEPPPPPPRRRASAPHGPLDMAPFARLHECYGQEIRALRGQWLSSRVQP
# UniProt Q8WXW3: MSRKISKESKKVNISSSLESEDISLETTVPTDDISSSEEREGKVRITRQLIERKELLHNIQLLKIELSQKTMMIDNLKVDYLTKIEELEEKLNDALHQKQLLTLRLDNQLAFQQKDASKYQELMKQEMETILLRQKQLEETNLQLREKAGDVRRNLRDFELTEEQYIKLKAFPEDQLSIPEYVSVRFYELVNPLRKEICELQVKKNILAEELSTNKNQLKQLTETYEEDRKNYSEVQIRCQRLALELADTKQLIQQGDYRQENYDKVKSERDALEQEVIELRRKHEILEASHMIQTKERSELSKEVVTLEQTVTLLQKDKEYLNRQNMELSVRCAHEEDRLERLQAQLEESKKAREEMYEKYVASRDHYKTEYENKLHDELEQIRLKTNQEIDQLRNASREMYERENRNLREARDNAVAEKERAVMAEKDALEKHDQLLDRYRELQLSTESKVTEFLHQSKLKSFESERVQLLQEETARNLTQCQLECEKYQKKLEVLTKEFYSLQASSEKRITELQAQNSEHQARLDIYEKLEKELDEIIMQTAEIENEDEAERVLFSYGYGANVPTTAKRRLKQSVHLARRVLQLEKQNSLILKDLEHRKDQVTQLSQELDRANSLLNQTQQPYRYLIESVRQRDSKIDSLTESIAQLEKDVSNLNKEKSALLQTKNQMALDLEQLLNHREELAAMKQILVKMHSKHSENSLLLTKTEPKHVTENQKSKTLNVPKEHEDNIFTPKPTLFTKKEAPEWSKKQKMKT
# PIGBOS1, A0A0B4J2F0, UniProt A0A0B4J2F0, whole entry, looked up: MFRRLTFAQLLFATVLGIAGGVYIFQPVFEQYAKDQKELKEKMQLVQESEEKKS
# Legend:
# Assay in all cases: log2 fold change, soluble protein after heating vs DMSO (PISA); higher = thermal stabilisation; K562 cells, 10 uM, 30 min; active = over 0.2 and 3.5 SD of the protein, either way, in both replicates (recomputed)
# [1] = compound: CC(=O)c1cnc2ccc(-c3cc(Cl)c(O)c(Cl)c3)nc2c1N[C@H]1CC[C@H](CN(C)C)CC1
# Summary of the method: (§1)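 Soluble protein was quantified by TMTpro 16plex LC-MS/MS after channel sums were equalised. It was obtained as the supernatant after 21,000xg for 90 min from pooled aliquots of K562 cells (2×10^6 cells/mL, 10 μM compound, 30 min) heated for 3 min across 48°C-58°C and extracted in PBS with 0.5% NP-40 at 4°C. Thermal stability values are relative to control samples and come from duplicates. They are given as log2 fold changes.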
# ralimetinib = compound: CC(C)(C)Cn1c(N)nc2ccc(-c3[nH]c(C(C)(C)C)nc3-c3ccc(F)cc3)nc21 [ralimetinib]
# Summary of the method: as §1
# [2] = compound: CC(C)(O)CC(=O)NCCn1ccc2ncnc(Nc3ccc(Oc4cccc(C(F)(F)F)c4)c(Cl)c3)c21
# Summary of the method: as §1
# [3] = compound: CC(C)C1=C2N=C(C=C(N2N=C1)NCC3=CC=CC=C3)NCCCCCCN
# Summary of the method: as §1
# [4] = compound: CC(C)C[C@@H](C=O)NC(=O)[C@H](CC(C)C)NC(=O)[C@H](CC(C)C)NC(=O)OCc1ccccc1
# Summary of the method: as §1
# [5] = compound: CC1=C(C2=C(C=C1)C(=O)C3=CC=CC=C3N2CCCN)C
# Summary of the method: as §1
# [6] = compound: CC1=C(C=C(C=C1)NC(=O)C2=CC(=CC=C2)C(C)(C)C#N)NC3=CC4=C(C=C3)N=CN(C4=O)C
# Summary of the method: as §1
# [7] = compound: CC1=C(C=C(C=C1)NC(=O)C2=CC(=CC=C2)N(C)C)NC(=O)C3=CC=C(C=C3)O
# Summary of the method: as §1
# Nexturastat A = compound: CCCCN(Cc1ccc(C(=O)NO)cc1)C(=O)Nc1ccccc1 [Nexturastat A]
# Summary of the method: as §1
# vemurafenib = compound: CCCS(=O)(=O)Nc1ccc(F)c(C(=O)c2c[nH]c3ncc(-c4ccc(Cl)cc4)cc23)c1F [vemurafenib]
# Summary of the method: as §1
# givinostat = compound: CCN(CC)Cc1ccc2cc(COC(=O)Nc3ccc(C(=O)NO)cc3)ccc2c1 [givinostat]
# Summary of the method: as §1
# [8] = compound: CCCc1cc(C)[nH]c(=O)c1CNC(=O)c1cc(-c2ccnc(N3CCN(C)CC3)c2)cc2c1cnn2C(C)C
# Summary of the method: as §1
# [9] = compound: CC1=CC=C(C=C1)SC2=C3C=C(SC3=CN=C2)C(=O)N
# Summary of the method: as §1
# [10] = compound: CCCS(=O)(=O)Nc1ccc(F)c(C(=O)c2c[nH]c3ncc(Cl)cc23)c1F
# Summary of the method: as §1
# ibrutinib = compound: C=CC(=O)N1CCC[C@@H](n2nc(-c3ccc(Oc4ccccc4)cc3)c3c(N)ncnc32)C1 [ibrutinib]
# Summary of the method: as §1
# barasertib = compound: CCN(CCCOc1ccc2c(Nc3cc(CC(=O)Nc4cccc(F)c4)[nH]n3)ncnc2c1)CCOP(=O)(O)O [barasertib]
# Summary of the method: as §1
# [11] = compound: CC1=C(C(CC(=O)N1)C2=CC=C(C=C2)C(F)(F)F)C(=O)NC3=C(C=C4C(=C3)C=NN4)F
# Summary of the method: as §1
target,measurement,setting,value
PEX5 isoform 4 (UniProt P50542),log2 fold change,[1],inactive: -0.035
same,log2 fold change,ralimetinib,inactive: 0.145
same,log2 fold change,[2],inactive: 0.038
same,log2 fold change,[3],inactive: 0.066
same,log2 fold change,[4],inactive: 0.123
same,log2 fold change,[5],inactive: -0.072
same,log2 fold change,[6],inactive: 0.089
same,log2 fold change,[7],inactive: -0.018
same,log2 fold change,Nexturastat A,inactive: 0.145
same,log2 fold change,vemurafenib,inactive: -0.066
same,log2 fold change,givinostat,inactive: 0.127
PHF14 (UniProt O94880),log2 fold change,ralimetinib,inactive: 0.079
same,log2 fold change,[4],inactive: 0.202
same,log2 fold change,[5],inactive: -0.423
same,log2 fold change,[6],inactive: -0.052
same,log2 fold change,[7],inactive: -0.01
same,log2 fold change,vemurafenib,inactive: 0.02
same,log2 fold change,[8],inactive: 0.098
PKIB isoform 2 (UniProt Q9C010),log2 fold change,[3],inactive: 0.102
same,log2 fold change,[9],inactive: 0.217
same,log2 fold change,[10],inactive: 0.079
same,log2 fold change,[8],inactive: 0.044
same,log2 fold change,givinostat,inactive: 0.052
PIGX isoform 2 (UniProt Q8TBF5),log2 fold change,ibrutinib,inactive: -0.022
same,log2 fold change,[2],inactive: -0.108
same,log2 fold change,[3],inactive: 0.032
same,log2 fold change,[5],inactive: -0.074
same,log2 fold change,[6],inactive: 0
same,log2 fold change,Nexturastat A,inactive: 0.251
same,log2 fold change,vemurafenib,inactive: -0.104
same,log2 fold change,[8],inactive: 0.029
same,log2 fold change,givinostat,inactive: 0.017
same,log2 fold change,barasertib,inactive: -0.059
PHYKPL (UniProt Q8IUZ5),log2 fold change,[2],inactive: -0.488
same,log2 fold change,[3],inactive: 0.109
same,log2 fold change,[11],inactive: 0.118
same,log2 fold change,[5],inactive: -0.005
same,log2 fold change,[6],inactive: 0.048
same,log2 fold change,[9],inactive: -0.027
same,log2 fold change,Nexturastat A,inactive: 0.349
same,log2 fold change,[10],inactive: -0.028
same,log2 fold change,[8],inactive: 0.177
same,log2 fold change,givinostat,inactive: -0.055
PKHD1 (UniProt P08F94),log2 fold change,[1],inactive: -0.11
same,log2 fold change,vemurafenib,inactive: 0.032
PIP5K1C isoform 3 (UniProt O60331),log2 fold change,ibrutinib,inactive: -0.106
same,log2 fold change,[2],inactive: -0.119
same,log2 fold change,[3],inactive: -0.213
same,log2 fold change,[5],inactive: -0.142
same,log2 fold change,[6],inactive: -0.043
same,log2 fold change,Nexturastat A,inactive: 0.189
same,log2 fold change,givinostat,inactive: 0.112
same,log2 fold change,barasertib,inactive: 0.073
PHLPP1 (UniProt O60346),log2 fold change,[2],inactive: 0.001
same,log2 fold change,[5],inactive: 0.138
same,log2 fold change,Nexturastat A,inactive: 0.113
PICK1 (UniProt Q9NRD5),log2 fold change,ralimetinib,inactive: -0.139
same,log2 fold change,[2],inactive: 0.04
same,log2 fold change,[4],inactive: 0.062
same,log2 fold change,[11],inactive: -0.184
same,log2 fold change,[6],inactive: -0.283
same,log2 fold change,[7],inactive: 0.051
same,log2 fold change,Nexturastat A,inactive: -0.024
same,log2 fold change,[8],inactive: -0.132
PIGW (UniProt Q7Z7B1),log2 fold change,ibrutinib,inactive: 0.053
same,log2 fold change,[1],inactive: -0.075
same,log2 fold change,[2],inactive: -0.054
same,log2 fold change,[3],inactive: -0.278
same,log2 fold change,[11],inactive: 0.081
same,log2 fold change,[5],inactive: 0.055
same,log2 fold change,[6],inactive: -0.064
same,log2 fold change,[9],inactive: 0.048
same,log2 fold change,Nexturastat A,inactive: -0.056
same,log2 fold change,vemurafenib,inactive: -0.033
same,log2 fold change,[10],inactive: 0.057
same,log2 fold change,[8],inactive: -0.015
same,log2 fold change,givinostat,inactive: 0.029
same,log2 fold change,barasertib,inactive: 0.123
PGM1 isoform 2 (UniProt P36871),log2 fold change,[3],inactive: 0.244
same,log2 fold change,givinostat,inactive: 0.088
PKIG (UniProt Q9Y2B9),log2 fold change,[8],inactive: 0.171
PFKFB1 (UniProt P16118),log2 fold change,ibrutinib,inactive: -0.01
same,log2 fold change,[2],inactive: -0.068
same,log2 fold change,[11],inactive: 0.032
same,log2 fold change,[6],inactive: 0.09
same,log2 fold change,[9],inactive: 0.173
same,log2 fold change,Nexturastat A,inactive: -0.068
same,log2 fold change,[10],inactive: -0.075
same,log2 fold change,[8],inactive: 0.01
same,log2 fold change,barasertib,inactive: 0.05
PLCXD1 (UniProt Q9NUJ7),log2 fold change,ibrutinib,inactive: 0.021
same,log2 fold change,ralimetinib,inactive: 0.113
same,log2 fold change,[4],inactive: 0.175
same,log2 fold change,[7],inactive: 0.05
same,log2 fold change,barasertib,inactive: -0.003
PLA2G12A (UniProt Q9BZM1),log2 fold change,ibrutinib,inactive: 0.08
same,log2 fold change,[1],inactive: -0.011
same,log2 fold change,ralimetinib,inactive: -0.167
same,log2 fold change,[2],inactive: -0.142
same,log2 fold change,[3],inactive: -0.143
same,log2 fold change,[4],inactive: 0.054
same,log2 fold change,[11],inactive: 0.08
same,log2 fold change,[5],inactive: -0.061
same,log2 fold change,[6],inactive: -0.237
same,log2 fold change,[7],inactive: 0.116
same,log2 fold change,[9],inactive: 0.143
same,log2 fold change,Nexturastat A,inactive: 0.159
same,log2 fold change,[10],inactive: -0.093
same,log2 fold change,[8],inactive: -0.235
same,log2 fold change,givinostat,inactive: 0.016
same,log2 fold change,barasertib,inactive: -0.146
PKLR (UniProt F8W6W2),log2 fold change,ibrutinib,inactive: 0.037
same,log2 fold change,[1],inactive: -0.28
same,log2 fold change,[9],inactive: -0.529
same,log2 fold change,vemurafenib,inactive: -0.229
same,log2 fold change,[10],inactive: -0.317
same,log2 fold change,barasertib,inactive: -0.07
PHRF1 (UniProt Q9P1Y6),log2 fold change,ralimetinib,inactive: -0.144
same,log2 fold change,[3],active: 0.718
same,log2 fold change,[4],inactive: 0.119
same,log2 fold change,[7],inactive: -0.052
same,log2 fold change,[9],inactive: -0.034
same,log2 fold change,[10],inactive: -0.058
same,log2 fold change,[8],inactive: 0.146
same,log2 fold change,givinostat,inactive: 0.034
PKNOX1 (UniProt P55347),log2 fold change,[1],inactive: -0.128
same,log2 fold change,[3],inactive: 0.086
same,log2 fold change,givinostat,inactive: 0.259
PLAUR (UniProt Q03405),log2 fold change,[1],inactive: -0.026
PHETA1 isoform 4 (UniProt Q8N4B1),log2 fold change,[1],inactive: -0.123
same,log2 fold change,[9],inactive: 0.02
same,log2 fold change,[10],inactive: 0
PI4KB isoform 2 (UniProt Q9UBF8),log2 fold change,[3],inactive: -0.218
same,log2 fold change,givinostat,inactive: -0.093
PIBF1 (UniProt Q8WXW3),log2 fold change,ibrutinib,inactive: 0.107
same,log2 fold change,[3],inactive: 0.183
same,log2 fold change,[5],inactive: 0.078
same,log2 fold change,[8],inactive: 0.129
same,log2 fold change,givinostat,inactive: 0.321
same,log2 fold change,barasertib,inactive: -0.26
PKN3 (UniProt Q6P5Z2),log2 fold change,[6],inactive: -0.044
"PIGBOS1, A0A0B4J2F0",log2 fold change,ibrutinib,inactive: 0.145
same,log2 fold change,[1],inactive: -0.065
same,log2 fold change,ralimetinib,inactive: -0.1
same,log2 fold change,[2],inactive: -0.017
same,log2 fold change,[3],inactive: 0.03
same,log2 fold change,[4],inactive: 0.035
same,log2 fold change,[11],inactive: 0.048
same,log2 fold change,[5],inactive: 0.085
same,log2 fold change,[6],inactive: 0.02
same,log2 fold change,[7],inactive: -0.051
same,log2 fold change,[9],inactive: -0.026
same,log2 fold change,Nexturastat A,inactive: -0.003
same,log2 fold change,vemurafenib,inactive: -0.023
same,log2 fold change,[10],inactive: -0.064
same,log2 fold change,[8],inactive: -0.055
same,log2 fold change,givinostat,inactive: 0.009
same,log2 fold change,barasertib,inactive: -0.094
PLCG2 (UniProt P16885),log2 fold change,ibrutinib,inactive: -0.074
same,log2 fold change,[1],inactive: -0.14
same,log2 fold change,[3],inactive: -0.033
same,log2 fold change,givinostat,inactive: 0.014
same,log2 fold change,barasertib,inactive: -0.004
PIK3CA (UniProt P42336),log2 fold change,ibrutinib,inactive: 0.06
same,log2 fold change,[1],inactive: -0.322
same,log2 fold change,ralimetinib,inactive: 0.222
same,log2 fold change,[2],inactive: -0.029
same,log2 fold change,[3],inactive: -0.099
same,log2 fold change,[4],inactive: 0.049
same,log2 fold change,[11],inactive: -0.668
same,log2 fold change,[6],inactive: -0.016
same,log2 fold change,[7],inactive: -0.069
same,log2 fold change,Nexturastat A,inactive: 0.182
same,log2 fold change,[8],inactive: 0.016
same,log2 fold change,givinostat,inactive: -0.011
same,log2 fold change,barasertib,inactive: -0.006
PLEKHA5 isoform 6 (UniProt Q9HAU0),log2 fold change,[1],inactive: -0.198
same,log2 fold change,[2],inactive: -0.102
same,log2 fold change,[3],inactive: -0.473
same,log2 fold change,[5],inactive: 0.139
same,log2 fold change,Nexturastat A,inactive: 0.034
same,log2 fold change,vemurafenib,inactive: 0.256
same,log2 fold change,[8],inactive: 0.224
same,log2 fold change,givinostat,inactive: 0.129

# Two records drawn at random from those above, as already listed:
target,measurement,setting,value
PLCG2 (UniProt P16885),log2 fold change,[3],inactive: -0.033
PHF14 (UniProt O94880),log2 fold change,[5],inactive: -0.423

# Given tab-delimited: part of the list above.
target	measurement	setting	value
PEX5 isoform 4 (UniProt P50542)	log2 fold change	[6]	inactive: 0.089
PIGX isoform 2 (UniProt Q8TBF5)	log2 fold change	Nexturastat A	inactive: 0.251
PFKFB1 (UniProt P16118)	log2 fold change	[8]	inactive: 0.01
PLA2G12A (UniProt Q9BZM1)	log2 fold change	barasertib	inactive: -0.146

# Three entries from above in a different format.
target	measurement	setting	value
PLEKHA5 isoform 6 (UniProt Q9HAU0)	log2 fold change	[5]	inactive: 0.139
same	log2 fold change	Nexturastat A	inactive: 0.034
same	log2 fold change	vemurafenib	inactive: 0.256

# Source: the supplement of paper PMC10849652
